Source: PubChem BioAssay AID687031 (Broad Institute, 2013)
Hit rate of the full screen: of about 1,400 compounds, about 50 (4%) were called active.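 How the source made its calls: active means fitted curve reaches 30% CPE protection at or below the top valid dose, with every test run called active; inconclusive means test runs disagree, some active and some not; inactive means every test run inactive, including effects in the wrong direction.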 The list shows a part of the results. Results with a measured potency or affinity are listed apart.

Assay: antiviral rescue of DENV2-infected BHK-21 cells – cell-based, ATP luminescence, cherry-pick, dose response (AID 687031);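 further: 0% = infected DMSO wells and 100% = uninfected cell wells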
Conditions: BHK-21 DENV2 CPE protection, 5 d; at 19.5 µM (top of the series) unless noted

CPE protection (higher = active), inactive:
COc1ccccc1N1CCN(Cc2cnc3ccc(Cl)cn23)CC1 0.522%, COc1ccc(-c2sc3cc4c(cc3c2C#Cc2cncn2C)OCO4)cc1 17.5%, O[C@@H]1CN(Cc2cccs2)[C@@H](c2ccccc2)C[C@H]1n1cc(-c2ccc(F)cc2)nn1 9.08%, COc1ccc(NC(=O)N[C@H]2CC[C@@H](CCn3cc(C4(O)CCCC4)nn3)O[C@@H]2CO)cc1 9.92%, COc1ccc(COC(=O)C2=C(C)NC(=O)NC2c2ccccc2F)cc1 (stereo unspecified) 4.68%, Brc1ccc(-c2nnc(-c3cccnc3)o2)cc1 13.5%, O=C(C1CC1)N1[C@@H](CO)[C@@H]2c3ccccc3NC[C@@H]21 -11.3%, CC(C)(C)OC(=O)N[C@H]1C=C[C@@H](CC(=O)OCC(F)(F)F)C1 12.1%, C[C@H]1CCCCO[C@@H](CN(C)C(=O)Nc2cccc3ccccc23)[C@@H](C)CN([C@@H](C)CO)C(=O)c2cc(NC(=O)Cc3ccccc3)ccc2O1 -8.48%, Cc1ccc2oc(C(=O)N(Cc3ccncc3)CC3CCCO3)c(C)c2c1 (stereo unspecified) -4.69%, CCCNC(=O)N1[C@H](CO)[C@@H](c2ccccc2)C12CN(C(=O)C1CCCCC1)C2 -14.2% [at 21 µM], O=C(OCc1ccccc1)N1CCCC2CC1c1ccccc12 (stereo unspecified) 2.88%, C[C@H]1CN([C@@H](C)CO)C(=O)c2cc(NC(=O)CCCN(C)C)ccc2O[C@@H]1CN(C)S(=O)(=O)c1ccc(Cl)cc1 -11.3% [at 21 µM], Cc1cccc(OCC(=O)NNC(=O)C2CCCCC2C(=O)O)c1 (stereo unspecified) -36.8%, C[C@@H]1CN([C@H](C)CO)C(=O)c2cc(NC(=O)Nc3ccc(C(F)(F)F)cc3)ccc2O[C@@H](C)CCCCO[C@@H]1CN(C)C(=O)Cc1ccccc1 14.1%, N#Cc1cc2cc3c(cc2nc1Cl)OCCO3 -12.1%, COc1cccc(-c2nc3nc(C)cc(C)n3c2NC2CCCC2)c1 -12.1%, Cc1ccc(C)c(NC(=O)CN2C(=O)C3CC=CCC3C2=O)c1 (stereo unspecified) 22.6%, COc1ccc2c3c([nH]c2c1)[C@H](CO)N(C(C)=O)CC31CN(C(=O)c2cccc(F)c2)C1 5.35%, CN(CC(=O)Nc1ccc(F)c(F)c1F)c1ncnc2sccc12 8.14%, O=C(N[C@@H]1C=C[C@H](CC(=O)N2CCc3ccccc3C2)O[C@@H]1CO)C1CCC1 -5.94%, COc1ccc(-c2cc(NC=O)c3ncc(-c4cc(OC)c(OC)c(OC)c4)n3c2)c(OC)c1 -34.4%, O=C(c1cccnc1)N1CC2(C1)[C@H](c1ccccc1)[C@@H](CO)N2Cc1ccccc1 -10.3% [at 21 µM], C[C@@H](NC(=O)c1nc[nH]c1C(=O)N(C)Cc1ccccc1)c1ccccc1 -2.86%, NC(=O)C1CCN(c2nc(-c3ccccc3Br)cs2)CC1 7.15%, OC(COC(c1ccc(Cl)cc1)c1ccc(Cl)cc1)CN1CCN(c2ccccn2)CC1 (stereo unspecified) -5.94%, COc1ccc(-c2ccccc2)cc1NC(=O)c1cccs1 -7.17%, COc1ccc(CCN2C(=O)CSCC2(C)C(=O)Nc2ccc3c(c2)OCCO3)cc1OC (stereo unspecified) 7.48%, CC1(C(=O)NCc2ccccc2)CN(S(C)(=O)=O)CC(=O)N1CCc1ccccc1F (stereo unspecified) 12.1%, COc1ccc(-n2nnnc2C2(C)CCC(=O)N2Cc2ccccc2)cc1 (stereo unspecified) 22.1%, Cc1c(Cl)cccc1NC(=O)CNC(=O)C1CC(=O)N(C2CCCC2)C1 (stereo unspecified) -7.21%, COCCNc1nc(Nc2ccccc2Cl)c2sccc2n1 -22.3% [at 10 µM], COc1ccc(N2CCN(Cc3nc4c(c(=O)[nH]c(=O)n4C)n3Cc3cccc(Cl)c3)CC2)cc1 -20.9%, CCc1ccc(C(=O)NNC(=O)c2c(CC)noc2C)cc1 -5.06%, COCCNC(=O)C[C@@H]1C[C@H]2c3cc(NC(=O)Nc4ccc(OC)cc4)ccc3O[C@H]2[C@@H](CO)O1 -17.4%, CCOc1ccc(N(CC(=O)NC2CCCC2)S(=O)(=O)c2c(C)[nH]c(=O)[nH]c2=O)cc1 -1.05%, COC(=O)c1cn(C(=O)c2ccc(OC)c(OC)c2)c2ccccc12 0.993%, CCCCNC(=O)c1ccc(NS(=O)(=O)c2ccc3[nH]c(=O)[nH]c3c2)cc1 12.1%, Cc1ccc(-c2nc3ccccc3n2C(C(=O)NC(C)(C)C)C2CC2)cc1 (stereo unspecified) -3.07%, CCCCNC(=O)c1cc2c(C)cc(C)cc2[nH]1 16.3%, Cc1ccccc1CSc1ccc(-c2ccc3c(c2)OCO3)nn1 5.16%, CCN1CCN(CC(=O)Nc2nc3ccc(C)cc3s2)CC1 -14% [at 10 µM], Cc1cccc(N(CC(=O)NC2CC2)S(=O)(=O)c2ccc(Cl)cc2)c1 -5.57%, Cc1ccc(NC(=O)C(=O)NCC2CCCN2S(=O)(=O)c2cccs2)cc1 (stereo unspecified) 1.19%, C[C@@H]1CCCCO[C@H](CN(C)S(=O)(=O)c2ccc(Cl)cc2)[C@H](C)CN([C@H](C)CO)C(=O)c2cc(N(C)C)ccc2O1 -5.57%, C[C@@H]1CN([C@H](C)CO)C(=O)c2cc(NC(=O)c3ccccc3)ccc2O[C@@H](C)CCCCO[C@@H]1CN(C)Cc1ccc(C(=O)O)cc1 -1.52%, COC(=O)C[C@H]1CC[C@H]2[C@@H](COc3ccc(NC(=O)c4cnccn4)cc3C(=O)N2C)O1 8.53%, Cc1ccc(NC(=O)Cn2cccc2C2=NC(c3ccccc3)CO2)cc1C (stereo unspecified) -4.2%, CCOC(=O)C[C@H]1c2ccccc2S(=O)(=O)N1c1ccccc1 -19.3%, N#CC(Cc1ccccc1OC(F)F)c1nc2ccccc2[nH]1 (stereo unspecified) 18.7%, O=C(Nc1ccc(F)cc1)C1CCCN(S(=O)(=O)c2ccc3[nH]c(=O)ccc3c2)C1 (stereo unspecified) -1.83%, COCC(=O)Nc1ccc2c(c1)C(=O)N(C)[C@@H]1CC[C@@H](CC(=O)NCC(F)(F)F)O[C@@H]1CO2 11.1%, CCCCN(C(C)=O)c1ccc2c(c1)C1CC2CCN1Cc1ccccc1 (stereo unspecified) -36.7%, CC(NC(=O)CN1CCN(c2cccc(Cl)c2)CC1)c1ccccc1 (stereo unspecified) -0.469%, Cc1ccc(C)c(N2CCN(C(=O)CCc3nc(-c4ccccc4)no3)CC2)c1 -15.2%, CCn1cc(C(=O)O)c(=O)c2cc(F)c(N3CCN(C)CC3)cc21 -4.33%, O=C(Cn1cnc2c(NCc3ccccc3)ncnc21)NCC1CCCO1 (stereo unspecified) -10.2%, COc1ccccc1OCC(=O)Nc1ccc(N2CCOCC2)cc1N1CCOCC1 -5.59%, CN1CCN(C(=O)C[C@@H]2CC[C@@H]3[C@H](COC[C@@H](O)CN3Cc3ccc4c(c3)OCO4)O2)CC1 -21.5%, O=C(COc1ccc2c(-c3ccccc3)cc(=O)oc2c1)NC1CCS(=O)(=O)C1 (stereo unspecified) 9.47%, CN1C(=O)c2cc(NC(=O)C3CCCC3)ccc2OC[C@H]2O[C@H](CC(=O)NCCc3ccncc3)CC[C@H]21 2.49%, CCC(=O)N1CC[C@@H]2[C@@H](CO)Nc3ccc(-c4ccc(OC)cc4)cc3[C@@H]21 -14%, CC(C)N(Cc1ccccc1)C(=O)COC(=O)c1cnc(Cl)c(Cl)c1 -6.48%, CCCNC(=O)OC1CC2CC1[C@H]1CCCCN1C2=O (stereo partly specified) -7.24%, CCN(CC)S(=O)(=O)c1cccc(C(=O)NCC2(N3CCOCC3)CCCCC2)c1 -4.55%, CC1CCC(CN2C(Nc3ccccc3)=NC[C@@H]2C)CC1 (stereo partly specified) -6.41%, N#C[C@@H]1[C@H](c2ccc(C#Cc3ccccc3F)cc2)[C@@H](CO)N1C(=O)C1CC1 -25.3%, CCOC(=O)CC[C@H](NC(=O)Cn1cnc2c(OCc3ccccc3)ncnc21)C(=O)OCC -6.24%, CC1(C)CC(=O)N(CC(=O)O)c2ccccc2S1(=O)=O -20.4%, O=C(O)c1cccc(-c2csc(C(O)c3ccc(F)c(F)c3)n2)c1 (stereo unspecified) -18.7%, CCN(CC)C1CCN(Cc2c(C(=O)N3CCCCCCC3)nc3ccc(Cl)cn23)C1 (stereo unspecified) -11.9%, CCOC(=O)c1[nH]c2ccccc2c1NC(=O)c1ccc2c(c1)OCO2 0.203%, CC(C)CCC(O)(c1ccccc1)C(CN1CCOCC1)c1ccccc1 (stereo unspecified) -20.9%, Nc1c(-c2ccccc2)nc2ncccn12 8.46%, O=C(NCc1ccc2c(c1)OCO2)C(=O)NCC1OCCCN1S(=O)(=O)c1ccccc1 (stereo unspecified) -15.4%, Cc1noc(C)c1NC(=O)Nc1ccc2c(c1)C(=O)N([C@@H](C)CO)C[C@@H](C)[C@@H](CN(C)Cc1ccccc1)OCCCC[C@@H](C)O2 18.2%, C[C@@H]1CN([C@H](C)CO)C(=O)c2cc(N(C)C)ccc2O[C@@H](C)CCCCO[C@@H]1CN(C)C(=O)CCC(F)(F)F 6.42%, CCCCN(C(=O)c1ccc2c(c1)NC(=O)CS2)c1ccccc1 -8.68%, c1ccc(-c2cc3ccccc3[nH]2)cc1 -9.13%, Cc1c(C(=O)NCc2ccc(C#N)cc2)sc(=O)n1Cc1ccccn1 0.599%, COC(=O)C[C@@H]1CC[C@H]2[C@@H](COc3ccc(NC(=O)c4ccc(C(F)(F)F)cc4)cc3C(=O)N2C)O1 -7.01%
